Measurements from US20030113828A1, “Compositions and methods for modulating Syk function” (priority 2001, published 2003).
No constants are given. Whether binding was seen depends on the method and setting. Some binding calls cover weakened binding; strength is not graded here.

By UniProt entry, the sequences of proteins in these tests, tags left out. Residues count along the entry.
UniProt P05106, residues 742-788: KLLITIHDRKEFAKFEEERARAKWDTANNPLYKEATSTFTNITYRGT
UniProt P43403: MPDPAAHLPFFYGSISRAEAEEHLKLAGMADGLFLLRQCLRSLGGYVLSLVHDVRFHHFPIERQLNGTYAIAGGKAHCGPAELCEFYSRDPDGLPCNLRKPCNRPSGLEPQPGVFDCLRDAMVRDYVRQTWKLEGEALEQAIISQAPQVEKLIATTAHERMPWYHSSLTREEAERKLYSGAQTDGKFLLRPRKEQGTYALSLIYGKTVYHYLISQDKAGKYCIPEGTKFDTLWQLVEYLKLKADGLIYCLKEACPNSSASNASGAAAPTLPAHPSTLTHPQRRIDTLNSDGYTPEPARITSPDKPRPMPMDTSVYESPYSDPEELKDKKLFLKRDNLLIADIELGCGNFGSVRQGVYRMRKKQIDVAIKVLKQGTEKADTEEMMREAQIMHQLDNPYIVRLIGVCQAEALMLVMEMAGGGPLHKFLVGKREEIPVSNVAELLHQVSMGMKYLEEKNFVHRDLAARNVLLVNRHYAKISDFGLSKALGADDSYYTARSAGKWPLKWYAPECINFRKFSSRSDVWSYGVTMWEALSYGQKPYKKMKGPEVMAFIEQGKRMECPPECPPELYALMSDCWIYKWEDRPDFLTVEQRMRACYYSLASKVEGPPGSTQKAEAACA

Target: integrin β3 cytoplasmic tail model protein (UniProt P05106)
Test: affinity chromatography of cell lysates on tail model protein beads, immunoblot

- binding: binds
Substance: Zap-70 (from UniProt P43403 1-619) (enzyme)
